These are yes or no findings as the source states them, for the method shown. In cells and extracts the contact can be indirect. Some entries that bind do so weakly or less than the wild type.
T1: METTL14 (mouse (endogenous in C2C12)) (UniProt Q3UIK4)
T1 sequence: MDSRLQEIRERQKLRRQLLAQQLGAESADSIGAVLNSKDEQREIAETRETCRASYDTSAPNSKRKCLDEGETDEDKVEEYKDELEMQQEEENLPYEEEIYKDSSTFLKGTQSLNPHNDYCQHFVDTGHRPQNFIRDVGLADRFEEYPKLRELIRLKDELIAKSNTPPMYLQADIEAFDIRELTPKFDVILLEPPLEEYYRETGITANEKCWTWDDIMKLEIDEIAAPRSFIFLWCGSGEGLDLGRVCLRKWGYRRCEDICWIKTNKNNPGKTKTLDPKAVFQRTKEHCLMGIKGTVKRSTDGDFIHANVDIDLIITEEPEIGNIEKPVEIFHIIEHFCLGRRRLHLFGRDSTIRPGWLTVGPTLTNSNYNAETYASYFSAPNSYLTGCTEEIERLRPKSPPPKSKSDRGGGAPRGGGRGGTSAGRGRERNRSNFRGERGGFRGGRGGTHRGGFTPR

Chains of the proteins cited; added tags and fusions are not shown.
UniProt P13864: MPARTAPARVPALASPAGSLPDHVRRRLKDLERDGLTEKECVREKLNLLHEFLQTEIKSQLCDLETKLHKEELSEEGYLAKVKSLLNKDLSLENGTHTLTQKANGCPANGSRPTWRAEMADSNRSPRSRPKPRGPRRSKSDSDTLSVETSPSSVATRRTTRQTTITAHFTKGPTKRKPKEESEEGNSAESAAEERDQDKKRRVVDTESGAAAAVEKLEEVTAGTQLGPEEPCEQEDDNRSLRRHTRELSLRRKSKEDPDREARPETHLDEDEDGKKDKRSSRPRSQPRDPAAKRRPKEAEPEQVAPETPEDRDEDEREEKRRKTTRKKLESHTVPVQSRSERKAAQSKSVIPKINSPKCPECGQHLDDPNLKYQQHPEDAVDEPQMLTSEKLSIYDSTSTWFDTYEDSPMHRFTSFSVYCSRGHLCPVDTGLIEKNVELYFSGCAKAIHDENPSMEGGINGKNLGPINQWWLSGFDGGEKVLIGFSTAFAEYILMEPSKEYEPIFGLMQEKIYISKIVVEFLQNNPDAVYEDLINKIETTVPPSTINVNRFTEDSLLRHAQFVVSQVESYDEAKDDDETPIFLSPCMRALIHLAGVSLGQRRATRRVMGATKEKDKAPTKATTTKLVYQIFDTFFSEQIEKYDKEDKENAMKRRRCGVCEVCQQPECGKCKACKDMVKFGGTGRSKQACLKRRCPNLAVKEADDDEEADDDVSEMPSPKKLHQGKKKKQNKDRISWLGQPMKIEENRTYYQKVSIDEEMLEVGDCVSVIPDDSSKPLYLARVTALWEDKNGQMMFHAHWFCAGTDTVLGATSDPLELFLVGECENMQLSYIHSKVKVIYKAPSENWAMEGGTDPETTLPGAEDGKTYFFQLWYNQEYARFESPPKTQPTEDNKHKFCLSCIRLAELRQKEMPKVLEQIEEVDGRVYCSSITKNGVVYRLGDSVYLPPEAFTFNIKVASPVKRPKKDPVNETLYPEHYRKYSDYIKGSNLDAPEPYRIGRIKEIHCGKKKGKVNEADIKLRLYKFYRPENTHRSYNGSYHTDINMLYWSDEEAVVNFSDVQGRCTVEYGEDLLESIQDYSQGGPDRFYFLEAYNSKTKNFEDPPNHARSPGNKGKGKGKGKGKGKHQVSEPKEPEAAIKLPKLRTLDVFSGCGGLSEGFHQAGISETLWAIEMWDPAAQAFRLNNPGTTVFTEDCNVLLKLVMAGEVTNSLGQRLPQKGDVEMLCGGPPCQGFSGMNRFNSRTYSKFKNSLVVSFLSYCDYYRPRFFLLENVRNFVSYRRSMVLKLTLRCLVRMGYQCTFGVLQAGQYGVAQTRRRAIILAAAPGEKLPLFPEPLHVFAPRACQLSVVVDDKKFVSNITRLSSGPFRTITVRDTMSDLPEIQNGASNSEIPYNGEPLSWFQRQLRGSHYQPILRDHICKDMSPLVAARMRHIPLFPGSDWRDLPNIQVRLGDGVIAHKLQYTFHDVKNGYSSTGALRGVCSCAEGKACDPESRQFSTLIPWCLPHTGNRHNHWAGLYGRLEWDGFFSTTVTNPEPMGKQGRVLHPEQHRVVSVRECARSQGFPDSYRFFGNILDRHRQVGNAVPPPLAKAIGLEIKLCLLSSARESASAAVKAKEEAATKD
UniProt Q8C3P7: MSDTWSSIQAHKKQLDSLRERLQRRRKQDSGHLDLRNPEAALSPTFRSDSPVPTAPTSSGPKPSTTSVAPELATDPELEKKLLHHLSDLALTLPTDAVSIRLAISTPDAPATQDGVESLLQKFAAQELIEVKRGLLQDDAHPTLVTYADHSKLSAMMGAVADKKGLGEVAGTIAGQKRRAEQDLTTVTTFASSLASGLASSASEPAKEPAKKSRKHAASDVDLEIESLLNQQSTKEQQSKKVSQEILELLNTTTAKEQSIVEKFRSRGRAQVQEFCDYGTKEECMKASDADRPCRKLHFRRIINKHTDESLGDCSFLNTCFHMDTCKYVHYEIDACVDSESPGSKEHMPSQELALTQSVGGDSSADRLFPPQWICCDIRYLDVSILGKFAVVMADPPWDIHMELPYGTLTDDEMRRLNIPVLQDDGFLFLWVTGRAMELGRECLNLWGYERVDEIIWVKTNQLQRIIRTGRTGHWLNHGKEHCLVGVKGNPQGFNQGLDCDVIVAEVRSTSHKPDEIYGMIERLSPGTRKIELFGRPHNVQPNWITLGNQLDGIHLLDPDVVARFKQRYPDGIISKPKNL


Tests used:
Assay in all cases: co-IP; endogenous proteins in lysate of C2C12 cells differentiated for 4 d; IP with 5 ug antibody overnight at 4 °C, Protein A/G PLUS-Agarose 2 h at 4 °C, Western blot; DNA methylases as bait and, reversed, RNA methylases as bait; nonspecific IgG as control
[1] = molecular target: DNMT1 (mouse (endogenous in C2C12)) (UniProt P13864)
[2] = molecular target: DNMT3B (mouse (endogenous in C2C12)) (UniProt O88509)
[3] = molecular target: METTL3 (mouse (endogenous in C2C12)) (UniProt Q8C3P7)
[4] = molecular target: T1, METTL14 (mouse (endogenous in C2C12))

binding [1]	binding [2]	binding [3]	binding [4]	Binder
binds	binds	binds	–	METTL14 (protein, UniProt Q3UIK4 1-456) MDSRLQEIRERQKLRRQLLAQQLGAESADSIGAVLNSKDEQREIAETRETCRASYDTSAPNSKRKCLDEGETDEDKVEEYKDELEMQQEEENLPYEEEIYKDSSTFLKGTQSLNPHNDYCQHFVDTGHRPQNFIRDVGLADRFEEYPKLRELIRLKDELIAKSNTPPMYLQADIEAFDIRELTPKFDVILLEPPLEEYYRETGITANEKCWTWDDIMKLEIDEIAAPRSFIFLWCGSGEGLDLGRVCLRKWGYRRCEDICWIKTNKNNPGKTKTLDPKAVFQRTKEHCLMGIKGTVKRSTDGDFIHANVDIDLIITEEPEIGNIEKPVEIFHIIEHFCLGRRRLHLFGRDSTIRPGWLTVGPTLTNSNYNAETYASYFSAPNSYLTGCTEEIERLRPKSPPPKSKSDRGGGAPRGGGRGGTSAGRGRERNRSNFRGERGGFRGGRGGTHRGGFTPR
binds	binds	binds	binds	WTAP (protein, UniProt Q9ER69 1-396) MTNEEPLPKKVRLSETDFKVMARDELILRWKQYEAYVQALEGKYTDLNSNDVTGLRESEEKLKQQQQESARRENILVMRLATKEQEMQECTTQIQYLKQVQQPSVAQLRSTMVDPAINLFFLKMKGELEQTKDKLEQAQNELSAWKFTPDSQTGKKLMAKCRMLIQENQELGRQLSQGRIAQLEAELALQKKYSEELKSSQDELNDFIIQLDEEVEGMQSTILVLQQQLKETRQQLAQYQQQQSQASAPSTSRTTSSEPVDQAEVTSKDCSRLANGPSNGSSSRQRTSGSGFHREGSTPEDDFPSSSGNGNKASNSSEERTGRGGSSYINPLSAGYESVDSPTGSENSLTHHSNDTDSSHDPQEEKAVSGKGNRTVGSRHVQNGLDSSVNVQGAVL
